# Results of single-concentration screens

The values are deposited in ChEMBL (CHEMBL3988442, “University of Dundee, Small-Polar-MMV Screening Library” (2021)).

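Assay of Toxoplasma gondii numbers, read through their beta-galactosidase reporter with a colour substrate. Compounds at 10 µM. Higher reads as fewer parasites (inferred from which compounds were picked for retests). Size under these conditions: about 67,000 compounds, about 260 of them at 50% or above in at least one test.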

The filed quantity is “Percent Effect” (%).
The controls that fix the scale are not given in the record; negative values are as filed.
This is an unselected part of the compounds tested.

{"structure": "Cc1cnc(C(=O)N2Cc3cc(Cl)ccc3OC3(CCOCC3)C2)cn1", "effect": -1.326}
{"structure": "O=c1ccn(Cc2nc(-c3ccccc3F)cs2)c(=O)[nH]1", "effect": 1.578}
{"structure": "O=C(CCCc1nnc(-c2ccccc2)o1)N1CCN(C2CC2)CC1", "effect": -20.18}
{"structure": "CNS(=O)(=O)c1ccc(CNC(=O)c2cccc(C)n2)cc1", "effect": 8.97}
{"structure": "O=C(O)C(F)(F)F.O=S(=O)(NCC1OCCc2cn(CC3CCOCC3)nc21)C1CC1", "stereo": "stereo not drawn", "effect": 1.036}
{"structure": "FC(F)(F)c1n[nH]c2c1CN(Cc1cn3ccccc3n1)CC2", "effect": 0.2401}
{"structure": "O=C(O)C(F)(F)F.[H][C@@]12CCN(Cc3scnc3C)C[C@]1(C(=O)NC(C)C)CCO2", "effect": -5.1}
{"structure": "Cc1nc2sccn2c1CN(CCCN(C)C)Cc1ccccn1.O=C(O)CC(O)(CC(=O)O)C(=O)O", "effect": 12.89}
{"structure": "Cc1cc(C(=O)N2CCC3(CC2)COCCN(c2cccnc2)C3)[nH]n1.O=C(O)C(F)(F)F", "effect": 0.9043}
{"structure": "Cn1cnc(-c2nc(C(=O)NC3CC3)c3ccccn23)c1", "effect": 17.33}
{"structure": "N#Cc1cccnc1NCc1ccc(S(=O)(=O)NCC2CCCO2)cc1", "stereo": "stereo not drawn", "effect": -5.708}
{"structure": "CC(=O)N1CCCn2nc(CNS(=O)(=O)Cc3ccccc3)cc2C1", "effect": -4.894}
{"structure": "CNC(=O)C1CCN(Cc2nc(-c3ccc(SC)cc3)oc2C)C1", "stereo": "stereo not drawn", "effect": 2.02}
{"structure": "CS(=O)(=O)NC1CCCN(Cc2ccc(OCc3ccccn3)cc2)C1", "stereo": "stereo not drawn", "effect": -1.157}
{"structure": "O=C(O)C(F)(F)F.O=C(O)C(F)(F)F.O=C(O)C(F)(F)F.c1ccc(CN2Cc3[nH]nc(COc4cccnc4)c3C2)nc1", "effect": -34.91}
{"structure": "[H][C@@]12CN(Cc3cccnc3)C[C@]1([H])CN(C(=O)c1cccn1C)C2", "effect": -16.01}
{"structure": "CC(CC(=O)N1CCCS1(=O)=O)c1ccccc1C(F)(F)F", "stereo": "stereo not drawn", "effect": -0.1985}
{"structure": "Cc1ccc(N2CCC3(CCN(C(=O)c4ccccn4)CC3)CC2)nn1.O=C(O)C(F)(F)F.O=C(O)C(F)(F)F", "effect": -4.543}
{"structure": "Cc1cnn(CCCNC(=O)N2CCCCC(N3CCCC3)C2)c1", "stereo": "stereo not drawn", "effect": -14.11}
{"structure": "Cc1cnc2c(c1NCc1ccncc1)c(=O)n(C)c(=O)n2C", "effect": 0.7663}
{"structure": "Cc1ncsc1CN1C[C@H](NC(=O)C2CCOCC2)[C@@H](C(C)C)C1", "effect": -2.553}
{"structure": "FC1(F)CCN(Cc2ccncc2)CC12CCN(c1cccnc1)C2.O=C(O)C(F)(F)F.O=C(O)C(F)(F)F.O=C(O)C(F)(F)F", "stereo": "stereo not drawn", "effect": 1.205}
{"structure": "COc1ccccc1OC1CCN(C(=O)c2cccc(O)c2C)CC1", "effect": -3.713}
{"structure": "COCC(=O)N1CCc2ccc(=O)n(CC3CC3)c2CC1", "effect": -16.88}
{"structure": "Cc1cc(Cl)ccc1NCc1cnn(C2CCS(=O)(=O)C2)c1", "stereo": "stereo not drawn", "effect": 7.65}
{"structure": "CC(=O)c1cccc(NC(=O)CN2CCCCC2C(=O)N2CCCC2)c1", "stereo": "stereo not drawn", "effect": 3.483}
{"structure": "CC(C)(C)n1cc(C(=O)NCCN2CCOCC2)c2cccnc21", "effect": -10.03}
{"structure": "CCCOCC(=O)N1CCCC(c2nnc(CN3CCCCC3)n2C)C1", "stereo": "stereo not drawn", "effect": -0.3748}
{"structure": "CN(C)C(=O)c1c[nH]nc1-c1ccc(CNC(=O)c2cnccn2)cc1", "effect": -6.336}
{"structure": "O=C(O)C(F)(F)F.OCCN1CCC(F)(F)C2(CCN(c3cnccn3)C2)C1", "stereo": "stereo not drawn", "effect": 3.493}
{"structure": "O=C(NC1CC1)c1cc(NC(=O)N2CCCC2)ccc1Cl", "effect": -22.33}
{"structure": "O=C(NCc1nncn1-c1ccccc1)C1CCCCC1", "effect": 6.914}
{"structure": "CN1C[C@@H](C(=O)N(C)C)[C@@]2(CCc3ccccc3C(=O)N2)C1.Cl", "effect": 0.3906}
{"structure": "CCN(CC)CCn1cc(NC(=O)Nc2ccccc2OC)cn1", "effect": 2.596}
{"structure": "Cc1cccc(-c2noc(CN3CC(n4cc(C)cn4)C3)n2)c1", "effect": -4.129}
{"structure": "CCCN1CCCN(CCCOc2cccc(C#N)c2)CC1", "effect": -8.043}
{"structure": "Fc1ccc(CNCc2cc(Br)c3c(c2)OCO3)cc1", "effect": 4.557}
{"structure": "Cc1ccc(CNC(=O)NCc2cccnc2N(C)C)s1", "effect": -1.588}
{"structure": "Cc1cncc(C(=O)N[C@@H]2CC[C@@H](N3CCOCC3)[C@@H]2O)c1", "effect": 0.7035}
{"structure": "[H][C@@]12COC[C@]1(C(=O)NCc1ccco1)CN(Cc1nc(C)cs1)C2", "effect": 12.29}
{"structure": "CSc1ccc(C(=O)N2CCOCC2c2c(C)nn(C)c2C)o1", "stereo": "stereo not drawn", "effect": -17.63}
{"structure": "Cc1noc2ncc(C(=O)NCC3CCN(C(C)C)C3)cc12", "stereo": "stereo not drawn", "effect": -20.18}
{"structure": "COCCNCC1(O)CCCN(Cc2ccc(F)c(F)c2)C1=O", "stereo": "stereo not drawn", "effect": -17.12}
{"structure": "O=C(c1cnc(-c2cccnc2)nc1)N1CCC(c2ccncc2)CC1", "effect": 4.043}
{"structure": "[H][C@]12CN(C(=O)C3CC3)CCN1C[C@@H](C(N)=O)[C@@H]2c1ccccc1", "effect": 28.95}